Results reported in PubChem BioAssay (NCATS).
Values joined by “and” are separate entries in the source; they are usually repeats but may differ in a detail not shown here. Identical values can stand only once. The list shows a part of the results. These are further read-outs of the screen, such as a control signal, another cell line or another target. No call is given for them. Most of these compounds were active or inconclusive in the main read-out, so they are no random draw. For some of these results: The note in brackets gives the kind of curve behind each potency; many fits are weak.

Experiments:
[1] = A High-Content qHTS Against Drug Library for the Identification of Small Molecules that Inhibit DYT1 Early Onset Primary Dystonia-Associated Cell Pathology (AID 1645839); conditions: HEK293 Flp-In EGFP-delE TorsinA, punctate imaging, 48 h; measured here: cell count cytotoxicity
Outline: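 High-content imaging quantified EGFP-TorsinA mislocalization in HEK293-derived cells inducibly expressing DYT1 mutant torsinA, after 48 h exposure to compound given together with tetracycline induction. Cell count served as a toxicity channel alongside %pathology.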

[2] = qHTS Assay for Inhibitors of PDE-IV (AID 607); conditions: HEK293 ACTOne CNG channel cells, membrane potential fluorescence; measured here: parental cell counter-screen
Outline: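 HEK293 ACTOne cells with CNG channel (1000/well), endogenous PDE4; membrane potential dye, compounds up to 22.9 uM final. Fluorescence Ex 535/Em 590; RO 20-1724 (100 uM final) as reference.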

[3] = qHTS Assay for Lipid Storage Modulators (AID 1519); conditions: Drosophila S3 cells, BODIPY lipid droplet/cell ratio, laser cytometry, cells loaded with oleic acid; for AC50: measured here: lipid (BODIPY) channel AC50
Outline: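 Cells seeded at 5,000 per well were treated with compounds over a concentration series and loaded with oleic acid (400 uM, as added). Lipid droplet fluorescence (488 nm excitation, 500-530 nm channel) was read by laser-scanning cytometry and normalized to 20 uM Triacsin C.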

[4] = qHTS assay for small molecule agonists of retinoid X receptor alpha signaling (AID 588544); conditions: HEK293T RXRa-UAS-bla, beta-lactamase reporter, 18 h; 530 nm emission
[5] = S16 Schwann cell PMP22 intronic element beta-lactamase assay (AID 624044); conditions: S16 rat Schwann cells, PMP22 element beta-lactamase FRET, 24 h; measured here: 460 nm blue channel
Outline: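 Beta-lactamase reporter under a PMP22 intronic regulatory element in stable S16 rat Schwann cells; 24 h compound exposure. 460 nm blue signal normalized between DMSO (0%) and potassium clavulanate, with 535 nm FRET tracking viability; curves classed by r2 and response.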

[6] = qHTS assay for small molecule antagonists of glucocorticoid receptor signaling (AID 588533); conditions: HeLa MMTV-bla, GRE beta-lactamase ratio, antagonist mode, 18 h; measured here: W530 channel AC50
[7] = qHTS assay for small molecule antagonists of peroxisome proliferator-activated receptor delta signaling (AID 588535); conditions: HEK293T PPARd-UAS-bla, beta-lactamase FRET ratio, 18 h; 460 nm channel;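 further: cells co-treated with a PPAR-delta agonist as stimulator during compound exposure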
Outline: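 Titrations were run on PPAR-delta-UAS-bla HEK293T cells in charcoal/dextran-stripped serum, incubated 18 h at 37 C. CCF4 fluorescence (460/530 nm) after 2 h RT; Hill equation yields IC50 and maximal response.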

[8] = qHTS assay for small molecule antagonists of vitamin D receptor signaling (AID 588541); conditions: HEK293T VDR-UAS-bla, beta-lactamase ratio, antagonist mode; measured here: W460 blue channel (cell viability)
[9] = qHTS assay for small molecule antagonists of retinoid X receptor alpha signaling (AID 588546); conditions: HEK293T RXRa-UAS-bla, beta-lactamase ratio, antagonist mode; measured here: W530 green channel, cytotoxicity proxy;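 further: cells stimulated with 9-cis-retinoic acid as agonist; on the % scale 0 is the no-effect control and ±100 the full control effect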
Outline: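 Beta-lactamase reporter inhibition, read as CCF4 fluorescence ratio (ex 405, em 460/530 nm) after 2 h at RT. HEK293T UAS-bla cells, 2500/well, were stimulated with 9-cis-RA at 500 or 100 nM final alongside test compound for 18 h at 37 C.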

[10] = qHTS assay for small molecule antagonists of peroxisome proliferator-activated receptor gamma signaling (AID 588537); conditions: HEK293 PPARg-UAS-bla, beta-lactamase ratio, antagonist mode; measured here: W460 blue channel
Outline: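 Antagonist-mode β-lactamase reporter screen run as a titration series. HEK293 PPARγ-UAS-bla cells are stimulated with rosiglitazone (50 nM final) for 16 h, then CCF4 is read at 460/530 nm. Data are scaled between DMSO and rosiglitazone and fitted to the Hill equation.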

[11] = measured here: cell count channel max response
[12] = measured here: lipid channel max response

COc1cc(C[C@@H](C)N)c(OC)cc1Br
AC50 [1]: 8.91 µM [falling, partial curve, poor fit]

CCN(CC)C(=O)[C@@H]1C=C2c3cccc4[nH]cc(c34)C[C@H]2N(C)C1
AC50 [1]: 141 µM [falling, single point]

Fc1ccc(C(OCCN2CCN(C/C=C\c3ccccc3)CC2)c2ccc(F)cc2)cc1
AC50 [2]: 5.01 µM [rising, partial curve]
max response [3, 11]: -32.2%
max response [3, 12]: -114%

CCCN(CCC)CCc1c[nH]c2ccccc12
AC50 [1]: 56.2 µM [falling, single point]

CN1CCC(N(Cc2ccccc2)c2ccccc2)CC1
AC50 [1]: 22.4 µM [falling, partial curve, poor fit]

CC1=C2[C@H]3OC(=O)[C@@H](C)[C@@H]3CC[C@@]2(C)C=CC1=O
AC50 [1]: 2.51 µM [rising, full curve, poor fit]

Clc1ccc(CCC(Cn2ccnc2)Sc2c(Cl)cccc2Cl)cc1 (stereo unspecified)
AC50 [1]: 5.62 µM [falling, partial curve, poor fit]

CN(C)CCc1ccc(O)cc1
AC50 [1]: 12.6 µM [rising, partial curve, poor fit]

CCCC(C)(COC(N)=O)COC(=O)NC(C)C (stereo unspecified)
AC50 [1]: 35.5 µM [rising, single point]

Clc1ccc(C(OCCN2CCCCC2)c2ccccc2)cc1 (stereo unspecified)
AC50 [1]: 22.4 µM [falling, single point]

Clc1ccc(CSC(Cn2ccnc2)c2ccc(Cl)cc2Cl)cc1 (stereo unspecified)
AC50 [1]: 11.2 µM [falling, partial curve, poor fit]

CN1C2CCC(C)(C)C1CC(OC(=O)C(O)(c1cccs1)c1cccs1)C2 (stereo unspecified)
AC50 [1]: 35.5 µM [falling, single point]

CCN(CC)CCc1c[nH]c2ccccc12
AC50 [1]: 70.8 µM [falling, single point]

Clc1cnc(Oc2ccc(Oc3ncc(Cl)cc3Cl)cc2)c(Cl)c1
max response [3, 11]: 36.7%
max response [3, 12]: 36.9%
max response [4]: -7.54%

Oc1ccc([C@H]2CNCc3c2ccc(O)c3O)cc1O
AC50 [1]: 12.6 µM [falling, single point]

CCCCCCCCCCCCCCCC[n+]1ccccc1
AC50 [3]: 7.94 µM [falling, partial curve]
AC50 [5]: 5.62 µM [falling, full curve]

c1ccc([C@H]2CNCc3ccccc32)cc1
AC50 [2]: 15.8 µM [rising, partial curve]
max response [3, 11]: 67.1%
max response [3, 12]: 88.4%

COc1cc(CC(C)N)c(OC)cc1Br (stereo unspecified)
AC50 [1]: 63.1 µM [falling, single point]

NC1(c2ccccc2)CCCCC1
AC50 [1]: 31.6 µM [falling, single point]

CCCCCCCCCCCCCCCC[N+](C)(C)C
AC50 [3]: 10 µM [falling, partial curve]
AC50 [6]: 50.1 µM [falling, partial curve, poor fit]
max response [7]: 143%
AC50 [8]: 50.1 µM [falling, single point]
max response [4]: -68.7% and -4.32%
max response [9]: -53.9%
AC50 [5]: 25.1 µM [falling, single point]
AC50 [1]: 7.08 µM [falling, partial curve, poor fit]

c1ccc2c(c1)Sc1ccccc1N2CC1CN2CCC1CC2 (stereo unspecified)
AC50 [1]: 15.8 µM [falling, single point]

CN1C[C@H](CNC(=O)OCc2ccccc2)C[C@H]2c3cccc4c3c(cn4C)C[C@@H]21
AC50 [2]: 10 µM [rising, partial curve, poor fit] and 15.8 µM [rising, single point] and 15.8 µM [rising, partial curve, poor fit]
max response [3, 11]: 74.6%
max response [3, 12]: 96.1%

COc1ccc(OC)c(CC(C)N)c1 (stereo unspecified)
AC50 [1]: 70.8 µM [falling, single point]

COc1cc(CC(C)N)cc2c1OCO2 (stereo unspecified)
AC50 [1]: 39.8 µM [falling, single point]

Nc1ccc(N)cc1
AC50 [1]: 35.5 µM [falling, single point]

CCOC(C(=O)OCCN(C)C)(c1ccccc1)c1ccccc1
AC50 [1]: 7.08 µM [falling, partial curve, poor fit]

CC(C)c1c(CN(C)C(C)Cc2ccccc2)n(C)n(-c2ccccc2)c1=O (stereo unspecified)
AC50 [1]: 1.26 µM [falling, full curve]

COP(=S)(OC)Oc1ccc([N+](=O)[O-])cc1
AC50 [3]: 17.8 µM [falling, single point]
max response [7]: -0.273%
AC50 [10]: 35.5 µM [falling, partial curve, poor fit]
